Reference: US11633379B2, “Methods of inhibiting PCSK9” (TRUSTEES OF DARTMOUTH COLLEGE, priority 2017, dated 2023)

Assay: Plasma total cholesterol in mice
Type: in vivo

## CC(=O)Oc1ccc(C2CC3(CCCCC3)c3c2[nH]c2ccccc32)cc1 (centres unmarked) [Compound 34]
5-day oral 100 mg/kg/day, FIG. 13A
  plasma cholesterol (mostly HDL): no significant changes
Single oral 100 mg/kg, FIG. 11A
  plasma cholesterol (mostly HDL): not affected
